We go through two substances from patent US20030208060A1.

Assay [1] deals with T1, MBP200 (membrane binding protein of ~200 kDa; human monocyte-macrophage apoB48 receptor, apoB48R) (human) (UniProt Q0VD83).
T1 sequence: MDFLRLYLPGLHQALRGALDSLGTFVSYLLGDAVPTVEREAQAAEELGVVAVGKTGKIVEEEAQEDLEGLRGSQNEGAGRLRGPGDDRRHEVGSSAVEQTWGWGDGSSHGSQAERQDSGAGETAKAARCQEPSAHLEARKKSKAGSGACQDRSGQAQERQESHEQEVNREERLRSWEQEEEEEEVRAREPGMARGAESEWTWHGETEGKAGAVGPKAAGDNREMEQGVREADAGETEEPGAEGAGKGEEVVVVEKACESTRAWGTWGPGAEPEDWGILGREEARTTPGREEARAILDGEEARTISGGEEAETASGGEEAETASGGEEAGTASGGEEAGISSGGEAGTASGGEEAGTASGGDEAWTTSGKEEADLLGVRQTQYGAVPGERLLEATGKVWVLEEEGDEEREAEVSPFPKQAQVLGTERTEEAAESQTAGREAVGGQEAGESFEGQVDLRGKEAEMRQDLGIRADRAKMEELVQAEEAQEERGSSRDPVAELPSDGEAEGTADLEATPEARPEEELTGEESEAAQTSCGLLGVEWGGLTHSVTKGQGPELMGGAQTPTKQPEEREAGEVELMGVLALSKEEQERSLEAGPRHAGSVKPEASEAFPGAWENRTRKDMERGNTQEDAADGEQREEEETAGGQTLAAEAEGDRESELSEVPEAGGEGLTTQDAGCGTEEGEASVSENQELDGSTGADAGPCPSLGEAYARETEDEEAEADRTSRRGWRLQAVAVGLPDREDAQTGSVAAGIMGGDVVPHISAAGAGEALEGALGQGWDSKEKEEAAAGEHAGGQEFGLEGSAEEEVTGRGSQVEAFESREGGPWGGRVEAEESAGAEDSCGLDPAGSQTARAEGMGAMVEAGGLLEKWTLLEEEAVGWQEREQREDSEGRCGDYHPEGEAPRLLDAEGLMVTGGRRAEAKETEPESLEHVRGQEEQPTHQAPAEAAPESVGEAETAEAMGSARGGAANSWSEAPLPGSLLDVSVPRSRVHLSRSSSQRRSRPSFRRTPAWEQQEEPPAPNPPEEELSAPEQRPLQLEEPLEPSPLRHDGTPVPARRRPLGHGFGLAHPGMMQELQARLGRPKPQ
The assay can be described thus: ligand blot.

Assay [2] deals with T2, apoB48R expressed in transfected CHO-K1 cells (human) (UniProt Q0VD83).
T2 sequence: T1 sequence
Description: ligand blot of detergent extracts of transfected CHO-K1, anti-apoB detection.

For assay [3], the target named is T2, apoB48R expressed in transfected CHO-K1 cells (human). Description: ligand blot of R-transfected CHO cells.

These are yes or no findings as the source states them, for the method shown. Binding calls can cover weak binding; strength is not graded here. For some of these results: Tags and fused reporters may be left off the sequences shown.

With “hypertriglyceridemic very low density lipoprotein Sf100-400 (HTG-VLDL) (human)”, the binding entry in assay [1] was “binds”.
On to “trypsinized VLDL Sf100-400, devoid of apoE (tryp-VLDL) (human)”, for which the binding result in assay [1], in assay [2] and in assay [3] was “binds” in each case.
